Assay results published in the supplement of paper PMC8728848.
The list shows a part of the results.

What was measured:
Assay in all cases: glycan array binding signal (z-score within array); higher = stronger binding
Details in all cases: glycan notation: IUPAC condensed, linker removed
[1] = target: GlcNAc(a1-4)Gal(b1-3)GlcNAc
Outline: (§1)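 Glycan array data came from 3228 arrays in the Consortium for Functional Glycomics database, and only arrays with an available protein sequence were kept. Glycan names were put into IUPAC-condensed notation, and columns mapping to the same glycan were averaged. The binding signal is a within-array Z-score, averaged across arrays of one protein sequence run at different concentrations or buffers and across linkers. A negative Z-score can be read as non-binding.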

[2] = target: GlcNAc(a1-4)Gal(b1-4)GalNAc
Outline: as §1

[3] = target: GlcNAc(a1-4)Gal(b1-4)GlcNAc
Outline: as §1

[4] = target: GlcNAc(a1-4)Gal(b1-4)GlcNAc(b1-3)Gal(b1-4)Glc
Outline: as §1

[5] = target: GlcNAc(a1-4)Gal(b1-4)GlcNAc(b1-3)Gal(b1-4)GlcNAc
Outline: as §1

[6] = target: GlcNAc(a1-4)Gal(b1-4)GlcNAc(b1-3)Gal(b1-4)GlcNAc(b1-3)Gal(b1-4)GlcNAc
Outline: as §1

[7] = target: GlcNAc(a1-4)Gal(b1-4)GlcNAc(b1-3)Gal(b1-4)[Fuc(a1-3)]GlcNAc(b1-3)Gal(b1-4)[Fuc(a1-3)]GlcNAc
Outline: as §1

[8] = target: GlcNAc(a1-6)Gal(b1-4)GlcNAc
Outline: as §1

[9] = target: GlcNAc(b1-2)Gal(b1-3)GalNAc
Outline: as §1

[10] = target: GlcNAc(b1-2)Man(a1-3)[GlcNAc(b1-2)Man(a1-6)]Man(b1-4)GlcNAc(b1-4)GlcNAc
Outline: as §1

[11] = target: GlcNAc(b1-2)Man(a1-3)[GlcNAc(b1-2)Man(a1-6)]Man(b1-4)GlcNAc(b1-4)[Fuc(a1-6)]GlcNAc
Outline: as §1

[12] = target: GlcNAc(b1-2)Man(a1-3)[GlcNAc(b1-4)][GlcNAc(b1-2)Man(a1-6)]Man(b1-4)GlcNAc(b1-4)GlcNAc
Outline: as §1

[13] = target: GlcNAc(b1-2)Man(a1-3)[GlcNAc(b1-4)][GlcNAc(b1-2)Man(a1-6)]Man(b1-4)GlcNAc(b1-4)[Fuc(a1-6)]GlcNAc
Outline: as §1

[14] = target: GlcNAc(b1-2)[GlcNAc(b1-4)]Man(a1-3)[GlcNAc(b1-2)Man(a1-6)]Man(b1-4)GlcNAc(b1-4)GlcNAc
Outline: as §1

[15] = target: GlcNAc(b1-2)[GlcNAc(b1-4)]Man(a1-3)[GlcNAc(b1-4)][GlcNAc(b1-2)Man(a1-6)]Man(b1-4)GlcNAc(b1-4)GlcNAc
Outline: as §1

[16] = target: GlcNAc(b1-2)[GlcNAc(b1-4)]Man(a1-3)[GlcNAc(b1-4)][GlcNAc(b1-2)[GlcNAc(b1-6)]Man(a1-6)]Man(b1-4)GlcNAc(b1-4)GlcNAc
Outline: as §1

[17] = target: GlcNAc(b1-2)[GlcNAc(b1-4)]Man(a1-3)[GlcNAc(b1-4)][GlcNAc(b1-2)[GlcNAc(b1-6)]Man(a1-6)]Man(b1-4)GlcNAc(b1-4)[Fuc(a1-6)]GlcNAc
Outline: as §1

[18] = target: GlcNAc(b1-2)[GlcNAc(b1-6)]Man(a1-6)[GlcNAc(b1-2)Man(a1-3)]Man(b1-4)GlcNAc(b1-4)GlcNAc
Outline: as §1

[19] = target: GlcNAc(b1-2)[GlcNAc(b1-6)]Man(a1-6)[GlcNAc(b1-2)Man(a1-3)]Man(b1-4)GlcNAc(b1-4)[Fuc(a1-6)]GlcNAc
Outline: as §1

[20] = target: GlcNAc(b1-2)[GlcNAc(b1-6)]Man(a1-6)[GlcNAc(b1-4)][GlcNAc(b1-2)Man(a1-3)]Man(b1-4)GlcNAc(b1-4)GlcNAc
Outline: as §1

[21] = target: GlcNAc(b1-3)Fuc
Outline: as §1

[22] = target: GlcNAc(b1-3)Gal
Outline: as §1

[23] = target: GlcNAc(b1-3)Gal(b1-3)GalNAc
Outline: as §1

[24] = target: GlcNAc(b1-3)Gal(b1-4)Glc
Outline: as §1

[25] = target: GlcNAc(b1-3)Gal(b1-4)GlcNAc
Outline: as §1

[26] = target: GlcNAc(b1-3)Gal(b1-4)GlcNAc(b1-2)Man(a1-3)[GlcNAc(b1-3)Gal(b1-4)GlcNAc(b1-2)Man(a1-6)]Man(b1-4)GlcNAc(b1-4)GlcNAc
Outline: as §1

[27] = target: GlcNAc(b1-3)Gal(b1-4)GlcNAc(b1-2)Man(a1-3)[GlcNAc(b1-3)Gal(b1-4)GlcNAc(b1-2)Man(a1-6)]Man(b1-4)GlcNAc(b1-4)[Fuc(a1-6)]GlcNAc
Outline: as §1

[28] = target: GlcNAc(b1-3)Gal(b1-4)GlcNAc(b1-2)[GlcNAc(b1-3)Gal(b1-4)GlcNAc(b1-6)]Man(a1-6)[GlcNAc(b1-3)Gal(b1-4)GlcNAc(b1-2)Man(a1-3)]Man(b1-4)GlcNAc(b1-4)GlcNAc
Outline: as §1

[29] = target: GlcNAc(b1-3)Gal(b1-4)GlcNAc(b1-3)Gal(b1-4)GlcNAc
Outline: as §1

[30] = target: GlcNAc(b1-3)Gal(b1-4)GlcNAc(b1-3)Gal(b1-4)GlcNAc(b1-2)Man(a1-3)[GlcNAc(b1-3)Gal(b1-4)GlcNAc(b1-3)Gal(b1-4)GlcNAc(b1-2)Man(a1-6)]Man(b1-4)GlcNAc(b1-4)GlcNAc
Outline: as §1

[31] = target: GlcNAc(b1-3)Gal(b1-4)GlcNAc(b1-3)Gal(b1-4)GlcNAc(b1-2)Man(a1-3)[GlcNAc(b1-3)Gal(b1-4)GlcNAc(b1-3)Gal(b1-4)GlcNAc(b1-2)Man(a1-6)]Man(b1-4)GlcNAc(b1-4)[Fuc(a1-6)]GlcNAc
Outline: as §1

[32] = target: GlcNAc(b1-3)Gal(b1-4)GlcNAc(b1-3)Gal(b1-4)GlcNAc(b1-2)[GlcNAc(b1-3)Gal(b1-4)GlcNAc(b1-3)Gal(b1-4)GlcNAc(b1-6)]Man(a1-6)[GlcNAc(b1-3)Gal(b1-4)GlcNAc(b1-3)Gal(b1-4)GlcNAc(b1-2)Man(a1-3)]Man(b1-4)GlcNAc(b1-4)[Fuc(a1-6)]GlcNAc
Outline: as §1

[33] = target: GlcNAc(b1-3)Gal(b1-4)GlcNAc(b1-3)Gal(b1-4)GlcNAc(b1-3)Gal(b1-4)GlcNAc(b1-2)Man(a1-3)[GlcNAc(b1-3)Gal(b1-4)GlcNAc(b1-3)Gal(b1-4)GlcNAc(b1-3)Gal(b1-4)GlcNAc(b1-2)Man(a1-6)]Man(b1-4)GlcNAc(b1-4)GlcNAc
Outline: as §1

[34] = target: GlcNAc(b1-3)Gal(b1-4)GlcNAc(b1-3)Gal(b1-4)GlcNAc(b1-3)Gal(b1-4)GlcNAc(b1-2)Man(a1-3)[GlcNAc(b1-3)Gal(b1-4)GlcNAc(b1-3)Gal(b1-4)GlcNAc(b1-3)Gal(b1-4)GlcNAc(b1-2)Man(a1-6)]Man(b1-4)GlcNAc(b1-4)[Fuc(a1-6)]GlcNAc
Outline: as §1

[35] = target: GlcNAc(b1-3)Gal(b1-4)GlcNAc(b1-3)Gal(b1-4)GlcNAc(b1-3)Gal(b1-4)GlcNAc(b1-2)[GlcNAc(b1-3)Gal(b1-4)GlcNAc(b1-3)Gal(b1-4)GlcNAc(b1-3)Gal(b1-4)GlcNAc(b1-6)]Man(a1-6)[GlcNAc(b1-3)Gal(b1-4)GlcNAc(b1-3)Gal(b1-4)GlcNAc(b1-3)Gal(b1-4)GlcNAc(b1-2)Man(a1-3)]Man(b1-4)GlcNAc(b1-4)[Fuc(a1-6)]GlcNAc
Outline: as §1

[36] = target: GlcNAc(b1-3)Gal(b1-4)GlcNAc(b1-3)Gal(b1-4)GlcNAc(b1-3)Gal(b1-4)GlcNAc(b1-3)Gal(b1-4)GlcNAc(b1-2)Man(a1-3)[GlcNAc(b1-3)Gal(b1-4)GlcNAc(b1-3)Gal(b1-4)GlcNAc(b1-3)Gal(b1-4)GlcNAc(b1-3)Gal(b1-4)GlcNAc(b1-2)Man(a1-6)]Man(b1-4)GlcNAc(b1-4)GlcNAc
Outline: as §1

[37] = target: GlcNAc(b1-3)Gal(b1-4)GlcNAc(b1-3)Gal(b1-4)GlcNAc(b1-3)Gal(b1-4)GlcNAc(b1-3)Gal(b1-4)GlcNAc(b1-2)Man(a1-3)[GlcNAc(b1-3)Gal(b1-4)GlcNAc(b1-3)Gal(b1-4)GlcNAc(b1-3)Gal(b1-4)GlcNAc(b1-3)Gal(b1-4)GlcNAc(b1-2)Man(a1-6)]Man(b1-4)GlcNAc(b1-4)[Fuc(a1-6)]GlcNAc
Outline: as §1

[38] = target: GlcNAc(b1-3)Gal(b1-4)GlcNAc(b1-3)Gal(b1-4)GlcNAc(b1-3)Gal(b1-4)GlcNAc(b1-3)Gal(b1-4)GlcNAc(b1-2)[GlcNAc(b1-3)Gal(b1-4)GlcNAc(b1-3)Gal(b1-4)GlcNAc(b1-3)Gal(b1-4)GlcNAc(b1-3)Gal(b1-4)GlcNAc(b1-6)]Man(a1-6)[GlcNAc(b1-3)Gal(b1-4)GlcNAc(b1-3)Gal(b1-4)GlcNAc(b1-3)Gal(b1-4)GlcNAc(b1-3)Gal(b1-4)GlcNAc(b1-2)Man(a1-3)]Man(b1-4)GlcNAc(b1-4)[Fuc(a1-6)]GlcNAc
Outline: as §1

B1: GS7807F-bth-514-18-514 (Bacteroides thetaiotaomicron) (protein)
chain: AGSCTGNFEEYNTNQFQIHEADPSTLMKSMIETIVNIQQNDSQMMDQMVGQLGGYLTCANVWSGTNFGTFNQSDAWNAGPWNTNFEKIYGNFFQIQEATNESGHYYAFARMIRAITMLRVADCYGPMPYSQVKKGNFYVAYDTEEQVYKNIMEDFASAANVLYNYYKDTNGNAPLASNDPVFSGNYANWARLANSMRLRVAIRISTAYPEMAKENAEAAASHEAGLIEANNDNAMMDCGSQTNPYQLAAVSWGDLRVNANIVDYMNGYGDPRMSKYFNHSTFTGHTQEYVGMRSGEDGFAKSDVAGYSIPAITGTSKLLVFCAAETAFLRAEGKLKNWSVGNKSAKEYYEEGIKLSMEQYGTTMPDNYLTNTEKPTVSHNNDPRGHAYTISNTVAVAWNDNNEEENLQRIITQKWIANYPLGLEAWAEYRRTGYPELYPCIDNLSPSGVDSKRGMRRLRFPYTEVQNNHSNYQQGVSYLKNGGPDNEATDLSWGKTN
glycan array binding signal (z-score) [1]: -0.124
glycan array binding signal (z-score) [2]: 0.105
glycan array binding signal (z-score) [3]: -0.867
glycan array binding signal (z-score) [4]: -0.587
glycan array binding signal (z-score) [5]: -0.023
glycan array binding signal (z-score) [6]: -0.902
glycan array binding signal (z-score) [7]: -0.016
glycan array binding signal (z-score) [8]: -0.667
glycan array binding signal (z-score) [9]: -0.792
glycan array binding signal (z-score) [10]: -0.78
glycan array binding signal (z-score) [11]: -0.346
glycan array binding signal (z-score) [12]: -0.913
glycan array binding signal (z-score) [13]: -0.886
glycan array binding signal (z-score) [14]: -0.837
glycan array binding signal (z-score) [15]: -0.9
glycan array binding signal (z-score) [16]: -0.913
glycan array binding signal (z-score) [17]: -0.898
glycan array binding signal (z-score) [18]: -0.73
glycan array binding signal (z-score) [19]: -0.75
glycan array binding signal (z-score) [20]: -0.874
glycan array binding signal (z-score) [21]: -0.396
glycan array binding signal (z-score) [22]: -0.877
glycan array binding signal (z-score) [23]: -0.456
glycan array binding signal (z-score) [24]: -0.764
glycan array binding signal (z-score) [25]: -0.881
glycan array binding signal (z-score) [26]: -0.352
glycan array binding signal (z-score) [27]: 0.175
glycan array binding signal (z-score) [28]: 0.143
glycan array binding signal (z-score) [29]: -0.802
glycan array binding signal (z-score) [30]: -0.17
glycan array binding signal (z-score) [31]: -0.665
glycan array binding signal (z-score) [32]: 0.581
glycan array binding signal (z-score) [33]: 2.65
glycan array binding signal (z-score) [34]: 3.26
glycan array binding signal (z-score) [35]: -0.514
glycan array binding signal (z-score) [36]: -0.802
glycan array binding signal (z-score) [37]: 1.77
glycan array binding signal (z-score) [38]: 3.08
